From PubChem BioAssay AID2718 (Broad Institute, 2010)
The whole screen tested about 320,000 compounds, of which about 480 (0.15%) were called active. The shares of active, inactive and inconclusive entries below differ from those in the screen. No stated cut-off is given here; in the data, active means inhibition above about 26% (passing the limit was not always enough); inconclusive means no clear call, values can overlap the other calls.

By UniProt entry, the sequences of proteins in these tests, tags left out.
UniProt O15379, whole entry, looked up: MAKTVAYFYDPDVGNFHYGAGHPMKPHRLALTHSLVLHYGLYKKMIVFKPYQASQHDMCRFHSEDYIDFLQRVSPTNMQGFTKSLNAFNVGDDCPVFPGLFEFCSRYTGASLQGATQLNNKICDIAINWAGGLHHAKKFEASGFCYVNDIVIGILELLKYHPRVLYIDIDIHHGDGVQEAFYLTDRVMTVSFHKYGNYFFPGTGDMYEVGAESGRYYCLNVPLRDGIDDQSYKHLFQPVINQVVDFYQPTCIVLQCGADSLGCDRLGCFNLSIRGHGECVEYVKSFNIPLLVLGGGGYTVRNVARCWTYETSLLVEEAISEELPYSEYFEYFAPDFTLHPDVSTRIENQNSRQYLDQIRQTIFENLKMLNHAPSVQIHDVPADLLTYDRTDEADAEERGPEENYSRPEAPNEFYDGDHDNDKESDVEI

Each molecule was assayed against Histone deacetylase 3 (Homo sapiens) (UniProt O15379) (assay: HDAC3 deacetylase inhibitors, primary screen, biochemical, fluorescence, cell-free homogeneous (AID 2718)). Conditions: recombinant HDAC3, fluorogenic peptide/trypsin coupled, at 8.3 µM, active compounds read high.

SMILES | inhibition
COc1cccc(-c2nnc3n2N=C(c2cc(OC)ccc2OC)CS3)c1 | inconclusive: 10.2%
COc1ccc(OC)c2sc(N(CCCN(C)C)C(=O)c3ccc(S(=O)(=O)N4CCc5ccccc5C4)cc3)nc12 | active: 40.9%
Cc1ccc(Nc2nc(-c3sc(NC(=O)c4cccc(Cl)c4)nc3C)cs2)cc1 | inconclusive: 15.5%
COc1cc(C(=O)NCCOc2ccccc2)c(Br)c(OC)c1OC | inconclusive: 12.3%
CN(CCCN1CCOCC1)Cc1cn(C)nc1-c1ccccc1F | inactive: -12.5%
Cc1cc(C)c(NC(=O)CN(C)S(=O)(=O)c2ccc3c(c2)n(C)c(=O)c(=O)n3C)c(C)c1 | inconclusive: 14%
COc1cc(OC)cc(C(=O)N2CCN(Cc3ccc4c(c3)OCO4)CC2)c1 | inactive: -4.82%
O=C(O)c1ccc2c(c1)C(=O)N(Cc1ccccc1)C2=O | inconclusive: 23.2%
O=C(NCc1cccs1)c1cnc(Cl)c(Cl)c1 | inactive: -14.9%
N#CC1=C(N)SC(N)=C(C#N)C1CCc1ccccc1 | inactive: -1.06%
CC1(C)CC(=O)C(C(C2=C(O)CC(C)(C)CC2=O)c2ccc(O)c([N+](=O)[O-])c2)=C(O)C1 | inconclusive: 19.2%
CC(=O)c1cnc2c(-c3ccc(Cl)cc3)cnn2c1C | inactive: -0.167%
O=C1C2C3C=CC(C3)C2C(=O)N1c1ccc2c(c1)CCC2 (centres undefined) | inconclusive: 18.7%
Cc1cc(C)n(CC(O)Cn2c3ccc(Cl)cc3c3cc(Cl)ccc32)c(=O)n1 (centres undefined) | inconclusive: 17.8%
COc1ccc2ccccc2c1C1CC(=O)N2CN(C3CCCCC3)CSC2=C1C#N (centres undefined) | active: 42.7%
COc1ccc(OC)c(NC(=S)NN2CCN(C)CC2)c1 | inconclusive: 13.3%
Nc1c(C(=O)Nc2ccccc2)sc2ncc([N+](=O)[O-])cc12 | inconclusive: 11.4%
CCC1C/C(=C\c2cc(OC)c(OC)cc2OC)C(=O)/C(=C/c2cc(OC)c(OC)cc2OC)C1 (centres undefined) | inconclusive: 26.4%
O=C(O)CCN1C(=O)/C(=C\c2ccc(-c3nc4ccccc4s3)o2)SC1=S | inconclusive: 22.6%
CCOC(=O)Nc1cc(NC(=O)OCC)c(C)nc1C | inconclusive: 17.9%
COC(=O)c1ccc(NC(=O)CN2CCN(c3ccccc3)CC2)cc1 | inactive: -3.44%

No new results follow: four of the compounds above.
SMILES | inhibition
COc1cc(C(=O)NCCOc2ccccc2)c(Br)c(OC)c1OC | inconclusive: 12.3%
CN(CCCN1CCOCC1)Cc1cn(C)nc1-c1ccccc1F | inactive: -12.5%
Cc1cc(C)c(NC(=O)CN(C)S(=O)(=O)c2ccc3c(c2)n(C)c(=O)c(=O)n3C)c(C)c1 | inconclusive: 14%
COc1cc(OC)cc(C(=O)N2CCN(Cc3ccc4c(c3)OCO4)CC2)c1 | inactive: -4.82%

Further entries

SMILES | inhibition
Cc1cccc(CN(CC(=O)N/N=C/c2cccs2)S(=O)(=O)c2ccc(Cl)cc2)c1 | inconclusive: 20.8%
C#CCOCCOCCOCCNc1nc(N2CCN(C(=O)CCCCCCCCCCNC(=O)Cn3cc(C[C@@H](C)O)nn3)CC2)nc(N2CCN(C(=O)CCCCCCCCCCNC(=O)[C@H](CCCN=C(N)N)n3cc(C[C@@H](C)CC)nn3)CC2)n1 | inconclusive: 25.7%
CCCOc1ccc(-c2c(=O)n(OCC(=O)OCC)c3ccccc3[n+]2[O-])cc1 | active: 33.6%
CC1CN(Cc2cc(=O)n3ccsc3n2)CC(C)O1 (centres undefined) | inconclusive: 10.8%
CSCC(=O)N1CCC(Oc2cccc(C(=O)NCc3ccccn3)c2)CC1 | inconclusive: 15.7%
Cc1cc(C)c(CNC(=O)c2cc(C3CC3)nc3c2cnn3C(C)C)c(=O)[nH]1 | inactive: 2.85%
O=[N+]([O-])c1ccc(C2=NN(CCO)C(=Nc3ccc(OC(F)(F)F)cc3)SC2)cc1 | inconclusive: 28.1%
Cc1cccc(N=C2Sc3nc4c(C)c(C)ccc4cc3CN2CCN2CCOCC2)c1 | inconclusive: 14.1%
COc1ccc(C(=O)Nc2c3c(nn2-c2cccc(Cl)c2)CS(=O)C3)cc1 (centres undefined) | inconclusive: 16.3%
Nc1cc(OC(=O)c2ccco2)nn1S(=O)(=O)c1ccc(F)cc1 | active: 85.3%
O=[N+]([O-])c1cc(S(=O)(=O)N2CCCC2)ccc1O | inactive: 3.18%
CNC(=O)CSc1nc2cc(S(=O)(=O)Nc3ccccc3OC)ccc2o1 | inactive: 0.382%
CCn1cc(/C=C(\NC(=O)c2ccccc2OC)C(=O)N2CCN(C)CC2)c2ccccc21 | inconclusive: 20.9%
Nc1ccccc1NC(=O)NC(=O)c1ccccc1 | active: 41.2%
C[C@H](CO)N1C[C@H](C)[C@@H](CN(C)C(=O)NC2CCCCC2)Oc2ccc(NC(=O)Nc3ccc(C(F)(F)F)cc3)cc2C1=O | inconclusive: 25.1%
COc1cccc(CNC(=O)Cn2cccc2)c1 | inconclusive: 15.6%
CCN1CCCc2cc(CN(CCN3CCOCC3)C(=S)Nc3ccccc3C)ccc21 | inactive: -5.14%
CC1(C)Cc2c(c(N3CCOCC3)nc3snc(Br)c23)CO1 | inconclusive: 18%
CC(NS(=O)(=O)c1ccccc1)C(N)=O (centres undefined) | inconclusive: 20.8%
CCOC(=O)C1(Nc2nccs2)Sc2ccccc2NC1=O (centres undefined) | inactive: -0.287%
COc1ccc(NC(=O)CN(C)CC(=O)Nc2ccc3c(c2)CCC3)cc1 | inconclusive: 19.7%

SMILES | inhibition
CCN(CC)CCCNC(=O)c1ccc(N2CCCCC2)c(NS(=O)(=O)c2ccc(C)cc2)c1 | inactive: -4.51%
CCN(C(=O)c1ccc(S(=O)(=O)N2CCCCC2)cc1)C1CCS(=O)(=O)C1 (centres undefined) | inconclusive: 23.6%
O=C(c1c(F)cccc1F)N1CCN(S(=O)(=O)c2ccc3c(c2)OCCO3)CC1 | inconclusive: 24%
Cc1ccc2nc(NC(=O)C3CCCN(S(=O)(=O)c4cnc[nH]4)C3)sc2c1 (centres undefined) | inactive: -3.45%
Nc1cc(OC(=O)c2ccc(F)cc2)nn1S(=O)(=O)c1ccccc1 | active: 58.7%
CCOC(=O)CC(N)c1ccc(OC)cc1 (centres undefined) | inconclusive: 19.8%
COc1ccc(S(=O)(=O)N2CCN(CC(=O)c3ccc(O)c(O)c3)CC2)cc1 | inactive: 4.25%
COc1ccc2c(c1)c(=O)oc1c(C)c(OCc3cc(C(=O)O)oc3C)ccc12 | inconclusive: 1.56%
O=C(CN1C(=O)NC2(CCCc3ccccc32)C1=O)NCc1ccc(Cl)cc1Cl (centres undefined) | inactive: 1.46%
COc1ccc2cc3cc(C(=O)N(C)C4CCCCC4)oc3nc2c1 | inconclusive: 20.3%
CCc1ccc(N2C(=O)CC(NNc3nc4ccccc4s3)C2=O)cc1 (centres undefined) | inconclusive: 29.1%
CC(C)COC(=O)C(C#N)c1nc2ccccc2nc1N1CCN(Cc2ccccc2)CC1 (centres undefined) | inconclusive: 13.7%
COc1ccc(OC)c(/C(C)=N/Nc2ccc(C(=O)O)cc2)c1 | inconclusive: 24%
CCOc1ccc(NC(=O)c2ccc(C#CC(C)(C)O)cc2)cc1 | inconclusive: 18.7%
CCOc1cc(C(=O)OC(C)C(=O)Nc2ncc(Cl)cc2Cl)ccc1OCC(=O)N1CCOCC1 (centres undefined) | inconclusive: 22.2%
O=C(C[C@@H]1C/C=C/CC[C@H](Cc2ccc(F)cc2)C(=O)OC[C@@H](Cc2ccccc2)NC1=O)N[C@H](CO)Cc1ccccc1 | inactive: -27.1%
O=C(CNc1ccc2ccccc2c1)N/N=C/C=C/c1cccc([N+](=O)[O-])c1 | inconclusive: 10.2%
S=c1[nH]nc(-c2ccccc2)n1/N=C/c1c[nH]c2ccccc12 | inconclusive: 27.1%
Cc1ccc(/C=N/n2c(C)nnc2C)o1 | inconclusive: 27.6%
Cc1ccc(-n2c(O)c(C=NC3CCS(=O)(=O)C3)c3ccccc3c2=O)cc1 (centres undefined) | inconclusive: 15.3%
CC(C)(C)OC(=O)NCCCC[C@H](NC(=O)c1[nH]cnc1C(=O)Nc1ccccc1)C(=O)OC(C)(C)C | active: 36.7%

SMILES | inhibition
CCC(C)c1c(O)nc(SCC(=O)c2ccccc2)[nH]c1=O (centres undefined) | active: 33%
CN(C)c1ccc(/C=c2\sc3n(c2=O)CCCN=3)cc1 | inconclusive: 25.2%
CCOC(=O)C(NC(=O)N(C)C)(Nc1sc(C)c(CC)c1C#N)C(F)(F)F (centres undefined) | active: 31.8%
O=C(c1c(O)c2ccccc2oc1=O)C1CCC1 | inconclusive: 12.8%
CCCC(=O)OCCNc1cc(SCc2ccco2)c2nonc2c1[N+](=O)[O-] | inconclusive: 36.7%
COc1cccc(CNC(=O)CCNC(=O)N2CCn3c2nc2ccccc23)c1 | inactive: 10.7%
CSc1nnc(CNS(=O)(=O)c2ccc(Br)cc2)n1C | inconclusive: 18.1%
Cc1cc(C(=O)NNC(=O)C(C)(C)Oc2ccc(Cl)cc2)c(C)o1 | inconclusive: 17.9%
CCOC(=O)Cn1nc(C)c2c1CCCC2=O | inconclusive: 35.5%
Cc1cccc(C(=O)NC(=S)Nc2ccc(N3CCOCC3)cc2)c1 | inconclusive: 15.8%
N/C(=N\N=C/c1ccc(Br)cc1)N/N=C\c1ccc(Br)cc1 | inconclusive: 18%
CC(C)C(=O)N1CCC2(CC1)Oc1ccc(Cl)cc1C(=O)C21CC(c2ccc(Cl)cc2)=NO1 (centres undefined) | inconclusive: 22.4%
CCCN1CCC2(CC1)C(C#N)=C(N)Oc1c2sc2nc(C)cc(C)c12 | inactive: 1.36%
CCOc1cc(C(=O)Nc2ccc(S(=O)(=O)N3CCCCC3)cc2)ccc1OCC(=O)N1CCOCC1 | inconclusive: 24.5%
O=C(N/N=C/c1ccccc1)c1cc[n+]([O-])cc1 | inactive: -0.246%
CC1(c2nnc(-c3ccncc3)o2)CC(c2c(Cl)cccc2Cl)=NO1 (centres undefined) | inconclusive: 25.4%
COc1cccc(NC(=O)C2c3cc(OC)c(OC)cc3C(=O)N(C)C2c2cccnc2)c1 (centres undefined) | active: 35.6%
FC(F)(F)c1cnc(-c2cnc(-c3cccnc3)nc2)c(Cl)c1 | inconclusive: 11.8%
COC(=S)N/C(=N\S(=O)(=O)c1ccc(Cl)cc1)c1ccccc1 | inconclusive: 18.7%
CCC1CCC(N2CCN(c3ccccc3F)CC2)CC1 (centres undefined) | inconclusive: 21.4%
O=S(=O)(N1CCCCC1)N1CCN(CC(O)COc2ccc3cc(Br)ccc3c2)CC1 (centres undefined) | inconclusive: 21.7%
